No constants are given. Whether binding was seen depends on the method and setting. A result given as binding can be weak or reduced; the word gives no strength.
Biological target: GST-CTLA4 (201–215) (human) (UniProt P16410)
Experiment: pull-down; GST-CTLA4 (201–215) immobilised on glutathione-sepharose beads, incubated overnight at 4°C with purified protein (1 µg MBP fusion, 1 µg NBEAL2, 0.2 µg LRBA, or purified 3xFlag-EGFP-NBEAL2 fragment); washed six times in 50 mM Tris-HCl pH 7.4, 150 mM NaCl, 1% Triton X-100; detected by blot (anti-NBEAL2, anti-LRBA, anti-Flag, anti-MBP); both purified

The chains behind the UniProt entries cited, without tags or fusion partners. Where a name states a change or a piece, a line headed by the entry shows the natural chain unless it says otherwise.
UniProt P16410: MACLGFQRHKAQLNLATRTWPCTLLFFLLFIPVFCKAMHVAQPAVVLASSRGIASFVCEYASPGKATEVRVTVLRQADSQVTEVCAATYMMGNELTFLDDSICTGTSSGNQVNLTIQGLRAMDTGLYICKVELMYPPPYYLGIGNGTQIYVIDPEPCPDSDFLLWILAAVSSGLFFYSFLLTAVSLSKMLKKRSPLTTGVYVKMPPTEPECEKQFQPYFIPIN

binding, binds:
PH-BEACH domain of NBEAL1 fused to MBP (from UniProt Q6ZS30-2) (domain or fragment)
PH-BEACH domain of LRBA fused to MBP (from UniProt P50851-1) (domain or fragment)
PH-BEACH domain of NBEAL2 fused to MBP (from UniProt Q6ZNJ1-1) (domain or fragment)

From PMC11554844, “BEACH domain proteins function as cargo-sorting adaptors in secretory and endocytic pathways” (The Journal of Cell Biology, 2024)
